{"source": "PubChem BioAssay AID1347076", "about": "(National Center for Advancing Translational Sciences (NCATS), 2019)", "note": "In all, about 400,000 compounds went through this assay and about 13,000 (3.2%) were called active. The inconclusive results got no clear call from the source; some entries with a clear call stand among them for comparison. Calls come from the whole dose curve; as a rule, active = well fitted cell-killing curve with a large enough effect; inconclusive = small, poorly fitted or top-dose-only effect, or effect the other way; inactive = flat fitted curve, though single readings scatter. A potency beside an inconclusive call is a rough fit, not a confirmed value. % is set by controls: 0 for no effect and ±100 for the full control effect; potency is the fitted concentration of half-maximal effect.", "data": [{"experiment": "qHTS assay for MDR1-selective chemotherapeutics: Primary screen using the drug-selected MDR subline cells KB-V1; note: nearly all actives have a fitted effect of over 60% in size", "conditions": "KB-V1 MDR cells viability, CellTiter-Glo, 72 h; activity change, negative = cytotoxicity: at 46.1 µM (top of the series)", "procedure,_shortened": "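Luminescent ATP read-out (CellTiter-Glo, 10 min) measures survival of drug-selected KB-V1 MDR cells after 72 h, 37 degrees C compound exposure. Medium: phenol-red-free DMEM, 10% FBS. Values from fitted concentration-response curves.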", "values": [{"molecule": "Cc1c(C(=O)N2CCCCCC2)oc2ccccc12", "Potency": "inconclusive: 29.1 µM [cytotoxic, single point]"}, {"molecule": "COc1cc2[nH]c(=O)n(CCCCCC(=O)N3CCN(c4ccccc4)CC3)c(=O)c2cc1OC", "Potency": "inconclusive: 20.6 µM [cytotoxic, single point]"}, {"molecule": "Cc1ccc(NC(=O)COc2ccccc2C(=O)NCCc2ccccc2)cc1", "Potency": "inconclusive: 2.59 µM [cytotoxic, full curve, poor fit]"}, {"molecule": "CC(C)CC(=O)NC(=S)Nc1ccc(S(=O)(=O)N2CCCC2)cc1", "Potency": "inconclusive: 20.6 µM [cytotoxic, single point]"}, {"molecule": "O=C(Nc1nnc(C2CC2)s1)c1ccc(Cl)c(S(=O)(=O)N2CCc3ccccc3C2)c1", "Potency": "inconclusive: 2.91 µM [cytotoxic, partial curve, poor fit]"}, {"molecule": "CC(NC(=O)c1ccccc1NC(=O)c1ccco1)c1ccccc1", "note": "(stereo unspecified)", "Potency": "inconclusive: 2.91 µM [cytotoxic, full curve, poor fit]"}, {"molecule": "O=C(Nc1cnn(C23CC4CC(CC(C4)C2)C3)c1)c1cnn2c(C(F)(F)F)cc(-c3ccco3)nc12", "Potency": "active: 8.2 µM"}, {"molecule": "Nc1ccc(Cc2nc3cc4ccccc4cc3[nH]2)cc1", "Potency": "inconclusive: 29.1 µM [cytotoxic, single point]"}, {"molecule": "Cc1nc(CSc2nnc(Nc3cccc(C)c3C)s2)cs1", "Potency": "active: 18.4 µM"}, {"molecule": "COc1ccc(-c2ccc3c(c2)c(Sc2ccccc2)c(-c2ccccc2)n3C)cc1", "Potency": "inconclusive: 13 µM [cytotoxic, partial curve, poor fit]"}, {"molecule": "CCCCCCCCNC(C)C(O)c1ccc(SC(C)C)cc1", "note": "(stereo unspecified)", "Potency": "active: 16.4 µM"}, {"molecule": "COc1ccc(-c2csc3ncnc(N4CCN(c5ccccc5OC)CC4)c23)cc1", "Potency": "inconclusive: 32.6 µM [cytotoxic, single point]"}, {"molecule": "C/C(=N\\NC(=O)C1CC1)c1ccc(C)c(C)c1", "activity change, negative = cytotoxicity": "inactive: -24%"}, {"molecule": "Cc1nc2ccc(NC(=O)c3ccc(=O)[nH]c3)cc2s1", "Potency": "inconclusive: 23.1 µM [rising, single point]"}, {"molecule": "CCC(=O)Nc1cccc(C2=NOC3(C2)C[C@@H](C(N)=O)N(C(=O)c2ccccc2C(=O)c2ccccc2)C3)c1", "note": "(stereo partly specified)", "activity change, negative = cytotoxicity": "inactive: -5.5%"}, {"molecule": "O=C1c2cccnc2C(=O)N1Cc1cccs1", "Potency": "inconclusive: 29.1 µM [rising, single point]"}, {"molecule": "Cc1cc(C)cc(NC(=O)C(NCCN2CCOCC2)c2ccccc2)c1", "note": "(stereo unspecified)", "Potency": "inconclusive: 5.8 µM [cytotoxic, full curve]"}, {"molecule": "CC1(C)Cc2cccc(OCC(=O)N3CCN(S(=O)(=O)c4ccccc4)CC3)c2O1", "Potency": "inconclusive: 9.2 µM [cytotoxic, partial curve]"}, {"molecule": "CCn1c(=O)n(CC)c2cc(S(=O)(=O)N3CCc4ccccc43)ccc21", "Potency": "active: 2.31 µM"}, {"molecule": "Cc1ccc(CNC(=O)c2cc(S(=O)(=O)N3CCCCCC3)cn2C)cc1", "activity change, negative = cytotoxicity": "inactive: -18.2%"}, {"molecule": "COc1ccc(CNc2ncnc(N)n2)cc1", "Potency": "inconclusive: 23.1 µM [cytotoxic, single point]"}, {"molecule": "O=C(NCC1CCCN1S(=O)(=O)c1cccs1)c1ccccc1", "note": "(stereo unspecified)", "Potency": "inconclusive: 20.6 µM [cytotoxic, single point]"}, {"molecule": "CC(CC(=O)O)Nc1ccccc1O", "note": "(stereo unspecified)", "activity change, negative = cytotoxicity": "inactive: 0.172%"}, {"molecule": "Cc1ccc(NC(=O)CN2CCCC2c2cccs2)cc1S(=O)(=O)N1CCCCC1", "note": "(stereo unspecified)", "activity change, negative = cytotoxicity": "inactive: -25.8%"}, {"molecule": "CN(CC(=O)Nc1ccc(Cl)c(C(F)(F)F)c1)C(=O)c1ccccc1SCC(=O)N1CCCC1", "activity change, negative = cytotoxicity": "inactive: 0%"}, {"molecule": "Cc1noc(C)c1COc1ccccc1C(=O)N(C)CC(=O)Nc1cccc(F)c1", "Potency": "inconclusive: 18.4 µM [cytotoxic, partial curve]"}, {"molecule": "CCCCN(C=O)c1c(CC)nc2c(OCc3cccc(Cl)c3)cccn12", "activity change, negative = cytotoxicity": "inactive: 3.49%"}, {"molecule": "CCOc1ccc(Nc2nc(N)nc(CN3CCN(c4ccccc4F)CC3)n2)cc1", "Potency": "inconclusive: 20.6 µM [cytotoxic, partial curve]"}, {"molecule": "CCN1CCN(c2cc(C)c3cc(NC(=O)c4cncc(Br)c4)ccc3n2)CC1", "Potency": "inconclusive: 18.4 µM [cytotoxic, partial curve, poor fit]"}, {"molecule": "Cc1ccccc1-c1cc2nc(NCc3cccnc3)n(C)c(=O)c2s1", "activity change, negative = cytotoxicity": "inactive: -1.12%"}, {"molecule": "Cc1ccc(Nc2nc(N)nc(CN3CCN(C)CC3)n2)cc1", "Potency": "inconclusive: 2.91 µM [rising, partial curve, poor fit]"}, {"molecule": "CCNC(=O)c1cc2c(c(-c3cccc(-c4ccccc4F)c3)n1)[C@@H](CCO)N(C(=O)CC)C2", "Potency": "inconclusive: 11.6 µM [cytotoxic, single point]"}, {"molecule": "CS(=O)(=O)c1ccc(NC(=O)COc2ccccc2C(=O)Nc2ccccc2)cc1", "activity change, negative = cytotoxicity": "inactive: 0%"}, {"molecule": "COc1ccccc1OCc1nnc(SCC(=O)c2cc(Cl)ccc2OC)o1", "Potency": "inconclusive: 18.4 µM [cytotoxic, partial curve]"}, {"molecule": "Cc1ccc(C)c(-c2csc(NC(=O)c3c(C)noc3C)n2)c1", "Potency": "inconclusive: 0.731 µM [cytotoxic, full curve, poor fit]"}, {"molecule": "N#Cc1cccc(NC(=O)C2SC(=Nc3ccccc3)C(C(=O)N3CCOCC3)=C2N)c1", "note": "(stereo unspecified)", "activity change, negative = cytotoxicity": "inactive: -9.86%"}, {"molecule": "Cc1ccc(CN2C3CCCC2CC(NC(=O)c2ccc(F)cc2)C3)cc1", "note": "(stereo unspecified)", "Potency": "inconclusive: 6.51 µM [cytotoxic, partial curve]"}, {"molecule": "CCOC(=O)c1[nH]c(C)c(C(=O)OCC(=O)N2c3ccccc3CC2C)c1C", "note": "(stereo unspecified)", "Potency": "active: 2.06 µM"}, {"molecule": "COC(=O)CN1C(=S)N(c2ccc(OC)cc2)C(=O)/C1=C/c1ccc(N2CCOCC2)cc1", "Potency": "inconclusive: 16.4 µM [rising, single point]"}, {"molecule": "CCCCC(=O)OC1=C(C(=O)c2ccccc2)N(CC)S(=O)(=O)c2ccccc21", "Potency": "inconclusive: 9.2 µM [cytotoxic, partial curve, poor fit]"}, {"molecule": "CC1(C(=O)Nc2cnc3ccccc3c2)CCN1CCc1ccccc1", "note": "(stereo unspecified)", "Potency": "inconclusive: 23.1 µM [cytotoxic, single point]"}, {"molecule": "CC1CCN(S(=O)(=O)c2ccc3nc(Nc4ccc(C#N)cc4)ccc3c2)CC1", "Potency": "inconclusive: 23.1 µM [cytotoxic, single point]"}, {"molecule": "COc1ccc(-c2nn(-c3ccccc3)cc2C(=O)N(C)CC(=O)Nc2ccccc2Br)cc1", "activity change, negative = cytotoxicity": "inactive: -5.03%"}, {"molecule": "CCCCCCCCNc1nc(Cl)nc(NCCN2CCOCC2)n1", "Potency": "inconclusive: 32.6 µM [cytotoxic, single point]"}, {"molecule": "O=C(/C=C/c1ccccc1Cl)N(c1ccccn1)C1CCCCC1", "Potency": "inconclusive: 18.4 µM [cytotoxic, single point]"}, {"molecule": "COc1cccc(CNC(=O)C2CCN(S(=O)(=O)N3CCC(C)CC3)CC2)c1", "activity change, negative = cytotoxicity": "inactive: -27.9%"}, {"molecule": "COc1ccc(S(=O)(=O)N2CCN(C)CC2)cc1", "activity change, negative = cytotoxicity": "inactive: 2.64%"}, {"molecule": "Cn1nnnc1SCCNC(=O)C1CCC(=O)N(CCc2ccccc2)C1", "note": "(stereo unspecified)", "Potency": "inconclusive: 25.9 µM [rising, partial curve]"}, {"molecule": "Cc1cccc(OCCSc2nc(-c3cccs3)nc3cc(=O)[nH]n23)c1", "Potency": "inconclusive: 20.6 µM [rising, single point]"}, {"molecule": "CCOC(=O)c1ccc(NC(=S)N(CCCN(CC)CC)Cc2ccco2)cc1", "activity change, negative = cytotoxicity": "inactive: 14.4%"}, {"molecule": "O=C(NCC(c1cccnc1)N1CCc2ccccc2C1)C(=O)Nc1ccccc1", "note": "(stereo unspecified)", "Potency": "inconclusive: 1.84 µM [cytotoxic, full curve, poor fit]"}, {"molecule": "C[C@H](NC(=O)c1ncn2c1C(=O)N[C@@H](C)C2)c1ccccc1", "Potency": "inconclusive: 25.9 µM [cytotoxic, single point]"}, {"molecule": "COc1ccc(C)cc1S(=O)(=O)N(C)CC(=O)NC1CCCC1", "Potency": "active: 11.6 µM"}, {"molecule": "COc1cc(CC(=O)OCc2cccc([N+](=O)[O-])c2)cc(OC)c1OC", "Potency": "inconclusive: 25.9 µM [rising, single point]"}, {"molecule": "O=C(CN1CCCCC1)Nc1nc(-c2ccc(F)c(F)c2)cs1", "Potency": "inconclusive: 29.1 µM [cytotoxic, single point]"}, {"molecule": "CCOc1ccc2c(c1)C(C)=CC(C)(C)N2S(=O)(=O)c1ccc(C)cc1", "Potency": "active: 5.8 µM"}, {"molecule": "CCOc1ccc(CC2CC(=O)NC2=O)cc1", "note": "(stereo unspecified)", "Potency": "inconclusive: 5.8 µM [rising, partial curve]"}, {"molecule": "CCOC(=O)c1sc2nc(C3CC3)cc(-c3ccc(F)cc3)c2c1N", "Potency": "active: 14.6 µM"}, {"molecule": "COC(=O)c1ccccc1NC(=O)C1CC(c2ccc(F)cc2)=NO1", "note": "(stereo unspecified)", "Potency": "inconclusive: 23.1 µM [cytotoxic, single point]"}, {"molecule": "O=c1c2ccccc2c(-c2n[nH]c(=S)o2)nn1Cc1ccccc1", "Potency": "inconclusive: 11.6 µM [cytotoxic, partial curve]"}, {"molecule": "CC(/C=C/c1ccc(N(C)C)cc1)=N\\N=C(/N)SC1CC(=O)N(c2ccc(C(=O)O)cc2)C1=O", "note": "(stereo unspecified)", "activity change, negative = cytotoxicity": "inactive: 2.87%"}, {"molecule": "N#Cc1c(NC(=O)COC(=O)c2ccc(O)cc2O)sc2c1CCC2", "activity change, negative = cytotoxicity": "inactive: 0%"}, {"molecule": "Nc1cc2ccncc2c2ccccc12", "Potency": "inconclusive: 23.1 µM [cytotoxic, single point]"}, {"molecule": "Cc1cc(=O)[nH]c(SCC(=O)N2CCC(Cc3ccccc3)CC2)n1", "Potency": "inconclusive: 20.6 µM [cytotoxic, partial curve, poor fit]"}, {"molecule": "COc1ccc(C(C)(NC(C)=O)c2nc(/C=C/c3ccccc3)cs2)cc1", "note": "(stereo unspecified)", "activity change, negative = cytotoxicity": "inactive: 1.14%"}, {"molecule": "Cc1cccc(C)c1NC(=O)CN(C)C(=O)C1=COCCO1", "activity change, negative = cytotoxicity": "inactive: -16.6%"}, {"molecule": "CN(CC(=O)NC(=O)NC1CCCCC1)CC(=O)Nc1ccc(OC(F)(F)F)cc1", "activity change, negative = cytotoxicity": "inactive: 4.3%"}, {"molecule": "CCCCOCCCNC(=O)c1ccc(OCC)cc1", "activity change, negative = cytotoxicity": "inactive: -2.84%"}, {"molecule": "CC(C)(C)c1ccc(OCC(=O)Nc2ccc3c4c(cccc24)C(=O)NC3=O)cc1", "Potency": "inconclusive: 25.9 µM [cytotoxic, single point]"}, {"molecule": "CSc1sc(-c2ccnc(=S)[nH]2)c(-c2ccccc2)c1C#N", "Potency": "inconclusive: 29.1 µM [rising, single point]"}, {"molecule": "O=C(NCc1ccc(F)cc1)c1ccc(S(=O)(=O)Nc2cccc(C(F)(F)F)c2)cc1", "Potency": "active: 14.6 µM"}]}]}
